PubChem BioAssay AID1508597 | Cure First – 2020

Assay: 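Genes whose silencing sensitises or protects ovarian cancer cells against rucaparib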 (primary screen)
Cells: human ovarian carcinoma lines grown from tumours: OCI-P5x (papillary serous) and OCI-C5x (clear cell)
Reagents: siRNA pool against human genes, 1.25 pmol siRNA per well
Timing: 72 h or 96 h, depending on the cell culture
Treatment: rucaparib 20 µM (about IC30) or vehicle, present until read-out
Rucaparib or vehicle: Rucaparib
Cell line: OCI-P5x (serous)
Read-out: 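Luminescent ATP-based viability assay read 72 or 96 h after transfection, depending on culture, given as normalised percent viability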
Direction: viability, normalised: higher = more viable cells remaining
Hit rule: 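a well counts as a hit if its normalised viability is under 80 percent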
Meaning of the calls: active = viability under 80%; inactive = viability 80% or more
Shown is a random part of the about 2,100 reagents, under one of the conditions tested. 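Calls flag viability under 80% in either arm, not effects specific to rucaparib; the reference for percent is not stated.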 A number with no mark means an inactive call. Reagent sequences are not shown. Not stated in the record: the 100% reference.

| gene | technical replicate | viability, normalised (%) |
| --- | --- | --- |
| CDKL4 (GeneID 344387) | 1 | 86.3 |
| CDKL4 (GeneID 344387) | 2 | 32.5 (active) |
| CDKL4 (GeneID 344387) | 3 | 80.6 |
| KDM2B (GeneID 84678) | 1 | 70.2 (active) |
| KDM2B (GeneID 84678) | 2 | 64.8 (active) |
| KDM2B (GeneID 84678) | 3 | 69.5 (active) |
| NFATC1 (GeneID 4772) | 1 | 43.8 (active) |
| NFATC1 (GeneID 4772) | 2 | 53.7 (active) |
| NFATC1 (GeneID 4772) | 3 | 55.4 (active) |
| MAPK14 (GeneID 1432) | 1 | 88.4 |
| MAPK14 (GeneID 1432) | 2 | 96.5 |
| MAPK14 (GeneID 1432) | 3 | 84.7 |
| WNK4 (GeneID 65266) | 1 | 58.1 (active) |
| WNK4 (GeneID 65266) | 2 | 59.8 (active) |
| WNK4 (GeneID 65266) | 3 | 65.2 (active) |
| FGFR1 (GeneID 2260) | 1 | 133 |
| FGFR1 (GeneID 2260) | 2 | 130 |
| FGFR1 (GeneID 2260) | 3 | 107 |
| RCOR1 (GeneID 23186) | 1 | 28.8 (active) |
| RCOR1 (GeneID 23186) | 2 | 31 (active) |
| RCOR1 (GeneID 23186) | 3 | 40.8 (active) |
| ACTR5 (GeneID 79913) | 1 | 60.3 (active) |
| ACTR5 (GeneID 79913) | 2 | 62.5 (active) |
| ACTR5 (GeneID 79913) | 3 | 57.7 (active) |
| SMAD3 (GeneID 4088) | 1 | 56.8 (active) |
| SMAD3 (GeneID 4088) | 2 | 63.5 (active) |
| SMAD3 (GeneID 4088) | 3 | 61.7 (active) |
| FAM131C (GeneID 348487) | 1 | 74.7 (active) |
| FAM131C (GeneID 348487) | 2 | 53.2 (active) |
| FAM131C (GeneID 348487) | 3 | 79.6 (active) |
| MLKL (GeneID 197259) | 1 | 129 |
| MLKL (GeneID 197259) | 2 | 133 |
| MLKL (GeneID 197259) | 3 | 98.8 |
| HPS1 (GeneID 3257) | 1 | 53.6 (active) |
| HPS1 (GeneID 3257) | 2 | 55.2 (active) |
| HPS1 (GeneID 3257) | 3 | 60 (active) |

Next part (4 carried over from the part before).
| gene | technical replicate | viability, normalised (%) |
| --- | --- | --- |
| MLKL (GeneID 197259) | 3 | 98.8 |
| HPS1 (GeneID 3257) | 1 | 53.6 (active) |
| HPS1 (GeneID 3257) | 2 | 55.2 (active) |
| HPS1 (GeneID 3257) | 3 | 60 (active) |
| SLIT1 (GeneID 6585) | 1 | 49.5 (active) |
| SLIT1 (GeneID 6585) | 2 | 62.6 (active) |
| SLIT1 (GeneID 6585) | 3 | 76.3 (active) |
| SCYL2 (GeneID 55681) | 1 | 66.5 (active) |
| SCYL2 (GeneID 55681) | 2 | 53.5 (active) |
| SCYL2 (GeneID 55681) | 3 | 62 (active) |
| AGK (GeneID 55750) | 1 | 72.6 (active) |
| AGK (GeneID 55750) | 2 | 54.1 (active) |
| AGK (GeneID 55750) | 3 | 64.3 (active) |
| KDM4B (GeneID 23030) | 1 | 54.1 (active) |
| KDM4B (GeneID 23030) | 2 | 55.9 (active) |
| KDM4B (GeneID 23030) | 3 | 49 (active) |
| INO80E (GeneID 283899) | 1 | 78.5 (active) |
| INO80E (GeneID 283899) | 2 | 78.4 (active) |
| INO80E (GeneID 283899) | 3 | 77.4 (active) |
| PDE12 (GeneID 201626) | 1 | 80.7 |
| PDE12 (GeneID 201626) | 2 | 65.4 (active) |
| PDE12 (GeneID 201626) | 3 | 62.1 (active) |
| SMYD5 (GeneID 10322) | 1 | 61.8 (active) |
| SMYD5 (GeneID 10322) | 2 | 64.3 (active) |
| SMYD5 (GeneID 10322) | 3 | 71.6 (active) |
